{"source": "patent US10488411B2", "about": "“Inflammasome activation in myelodysplastic syndromes” (H. LEE MOFFITT CANCER CENTER AND RESEARCH INSTITUTE, INC., priority 2015, dated 2019)", "system": "MDS BM-MNC", "test": "Colony formation assay of MDS BM-MNC in autologous BM plasma", "type": "cell-based, human", "conditions": "MDS BM-MNC (n=3), increasing concentrations, colonies scored after fourteen days", "note": "Some of these results come from one statement about several compounds together.", "data": [{"molecule": "CC(C)(O)c1coc(S(=O)(=O)NC(=O)Nc2c3c(cc4c2CCC4)CCC3)c1", "note": "[MCC950]", "values": [{"measurement": "colony-forming capacity, fold greater than controls", "result": "up to 6.6 fold"}]}]}
